The list shows a part of the results. For some of these results: Construct or isoform of the protein are uncertain.
Key:
Experiment in all cases: protein microarray (ProtoArray v5.0), streptavidin-Alexa Fluor 647
Settings in all cases: 3'-biotin; 20 mM Tris (pH 7.5), 5 mM MgCl2, 100 mM KCl, 0.1% Tween-20, A/T-rich and random oligonucleotide blockers; temperature not stated; high values mean tight binding
[1] = biological target: RWDD2B (UniProt P57060)
[2] = system: Rab9 effector protein with Kelch motifs (human)
[3] = system: Rap1 GTPase-GDP dissociation stimulator 1 (human)
[4] = system: Ras-related protein Rab-39B (human)
[5] = system: Ras-related protein Rab-3D (human)
[6] = system: Ras-related protein Rab-9B (human)
[7] = system: Receptor expression-enhancing protein 1 (human)
[8] = system: Receptor expression-enhancing protein 5 (human)
[9] = system: Regenerating islet-derived protein 3 gamma (human)
[10] = system: Regulator of G-protein signaling 3 (human)

The chains behind the UniProt entries cited, without tags or fusion partners. Where a name states a change or a piece, a line headed by the entry shows the natural chain unless it says otherwise.
UniProt P57060: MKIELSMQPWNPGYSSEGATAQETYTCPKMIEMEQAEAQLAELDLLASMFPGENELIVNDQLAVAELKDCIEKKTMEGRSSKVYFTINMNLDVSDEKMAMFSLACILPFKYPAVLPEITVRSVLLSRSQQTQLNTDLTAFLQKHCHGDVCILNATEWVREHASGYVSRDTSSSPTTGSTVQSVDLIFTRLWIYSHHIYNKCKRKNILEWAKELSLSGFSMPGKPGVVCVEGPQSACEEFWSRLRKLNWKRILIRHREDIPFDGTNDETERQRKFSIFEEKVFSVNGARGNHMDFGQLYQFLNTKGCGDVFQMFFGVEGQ

“GGGGACAGGGGTATGGGGAGGGG [G4-3 biotinylated (CtG)]” was tested, and the binding signal [1] was 4.83 z-score, the binding signal [2] was -0.327 z-score and the binding signal [3] was -0.343 z-score. For the same sequence, the binding signal [4] was -0.341 z-score, the binding signal [5] was -0.331 z-score and the binding signal [6] was -0.34 z-score. For the same sequence, the binding signal [7] was -0.317 z-score, the binding signal [8] was -0.339 z-score and the binding signal [9] was -0.333 z-score. It also gave a binding signal [10] of 5.25 z-score.

Source: PMC5996148
